Results from publication PMC10008575.
No constants are given. Whether binding was seen depends on the method and setting. Binding seen in cells or lysates may run through a third protein. Binding calls can cover weak binding; strength is not graded here.

Target: T1, Stomatin-like protein 2 (STOML2) (human (endogenous in PANC1 and BxPC3)) (UniProt Q9UJZ1)
T1 sequence: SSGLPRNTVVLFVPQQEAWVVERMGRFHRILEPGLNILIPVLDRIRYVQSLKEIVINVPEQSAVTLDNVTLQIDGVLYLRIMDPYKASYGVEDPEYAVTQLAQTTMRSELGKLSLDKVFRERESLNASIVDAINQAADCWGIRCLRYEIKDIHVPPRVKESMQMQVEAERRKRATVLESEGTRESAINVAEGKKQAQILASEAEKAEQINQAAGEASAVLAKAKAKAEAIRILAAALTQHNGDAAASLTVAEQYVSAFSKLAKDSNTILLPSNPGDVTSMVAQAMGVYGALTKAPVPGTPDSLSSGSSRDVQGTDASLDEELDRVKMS
Test: co-IP; PANC1 and BxPC3 cells lysed in modified RIPA buffer; lysates mixed with protein A/G agarose bead-conjugated STOML2 antibody or IgG for 2 h at room temperature; Western blot

**Q.** How did the binding turn out when “PARL (presenilin associated rhomboid like) (human (endogenous in PANC1 and BxPC3)) (enzyme)” was run?
**A.** Its binding is “binds”.
